In PubChem BioAssay AID1487 (National Center for Advancing Translational Sciences (NCATS), 2009):
The list shows a part of the results. The main result of the screen is listed elsewhere. These columns were measured beside it and carry no call. The list favours compounds with an active or inconclusive main result. Words in brackets tell the shape of the fitted curve; partial curves, single points and poor fits give uncertain potencies.

Assay: qHTS Assay for Modulators of Lamin A Splicing
Settings: HeLa LMNA splicing GFP/RFP minigene ratio, 48 h
In short: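 Read-out is the ratio of GFP to DsRed2 object intensity, acquired by 488 nm laser-scanning cytometry on HeLa lamin A-EGFP minigene reporter cells. Compound incubation 48 hrs at 37 °C in Opti-MEM with 2% FBS; DMSO 0.5% final.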

[1] = measured here: RFP viability control channel
[2] = measured here: GFP splicing reporter channel

SMILES	AC50 [1]	AC50 [2]
COc1ccc2cc3cc(C(=O)NCCN4CCc5ccccc5C4)sc3nc2c1	7.08 µM [rising, partial curve]	–
CCOC(=O)N/N=C/c1c(C)nn(-c2cccc(C(F)(F)F)c2)c1Cl	5.62 µM [rising, single point]	–
CCOc1ccc(CN2CCN(C(=O)c3ccccc3)CC2)cc1	15.8 µM [rising, partial curve]	10 µM [rising, partial curve, poor fit]
COc1cc(OC)cc(C(=O)NC(=S)NNC(=O)c2cnccn2)c1	3.55 µM [rising, full curve, poor fit]	–
Cc1ccc(CNC(=O)C23CN(Cc4ccccc4)CC2C(c2ccc([N+](=O)[O-])cc2)=NO3)o1 (stereo not given)	35.5 µM [rising, single point]	31.6 µM [rising, single point]
COc1ccc(C(=O)NC(=S)N(CCC(C)C)c2c(N)n(Cc3ccccc3)c(=O)[nH]c2=O)cc1	22.4 µM [rising, single point]	–
CCOC(=O)C1=C(C)NC2=C(C1c1ccc([N+](=O)[O-])cc1)S(=O)(=O)c1ccccc12 (stereo not given)	5.62 µM [rising, single point]	–
Cc1ccc(C(=O)N/C(=C/c2ccco2)C(=O)NC2CCS(=O)(=O)C2)cc1 (stereo not given)	–	0.112 µM [rising, full curve, poor fit]
COc1cccc(C2=CC(c3cc(OC)ccc3OC)n3nnnc3N2)c1 (stereo not given)	–	35.5 µM [falling, single point]
CCCCc1cc2c(s1)CCCC/C2=N/O	31.6 µM [rising, single point]	31.6 µM [rising, single point]
COc1ccc2[nH]c3c(c2c1)CCNC3C1CC=C(C)CC1 (stereo not given)	–	0.112 µM [rising, full curve]
Cc1ccc(C)c(NC(=S)NNC(=O)c2csc3c2CCC(C)C3)c1 (stereo not given)	25.1 µM [rising, partial curve]	20 µM [rising, partial curve]
CC(=O)Oc1ccc(N2C(=O)C3C(C2=O)C2(C)C=CC3(C)O2)cc1 (stereo not given)	22.4 µM [rising, single point]	–
COc1ccc(CCN2C(=O)c3ccncc3C2=O)cc1OC	6.31 µM [falling, single point]	–
O=C(Cn1ccnc1[N+](=O)[O-])NCCO	14.1 µM [falling, single point]	6.31 µM [falling, single point]
OCCN1CCN(c2ncnc3sc(-c4ccccc4)cc23)CC1	–	35.5 µM [falling, partial curve, poor fit]
Cc1ccc(OCc2nc(-c3ccccc3)no2)c(C)c1	0.01 µM [rising, full curve, poor fit]	–
O=C(c1cccnc1)N1CCN(S(=O)(=O)c2ccc(Cl)cc2)CC1	7.08 µM [rising, partial curve, poor fit]	–
CCOc1ccc(NC(=O)c2c(Nc3ccccc3C)sc(C(=O)c3ccccc3)c2N)cc1	31.6 µM [rising, single point]	35.5 µM [rising, single point]
CCCCCC(=O)Nc1ccccc1N1CCN(c2ccccc2)CC1	35.5 µM [rising, single point]	–
CC(=O)c1c(O)ccc2c(-c3ccccc3)cc(=O)oc12	35.5 µM [rising, single point]	35.5 µM [rising, single point]
CS(=O)(=O)c1ccc(C(=O)NCCN2C(=O)S/C(=C\c3cccnc3)C2=O)cc1[N+](=O)[O-]	5.62 µM [falling, single point]	1.78 µM [falling, full curve, poor fit]
Oc1ccc(O)c(Cc2nc3ccccc3[nH]2)c1	35.5 µM [falling, single point]	35.5 µM [falling, single point]
COc1ccc(-c2nnc(SC(C)C(=O)Nc3c(C)n(C)n(-c4ccccc4)c3=O)o2)cc1 (stereo not given)	0.316 µM [falling, full curve, poor fit]	–
CCOC(=O)c1c(NC(=O)C(C)Sc2cccc[n+]2[O-])sc2c1CCN(Cc1ccccc1)C2 (stereo not given)	25.1 µM [rising, single point]	12.6 µM [rising, single point]
O=C(NCc1ccco1)C1CCN(c2ccc(S(=O)(=O)N3CCOCC3)cc2[N+](=O)[O-])CC1	0.794 µM [falling, full curve]	–
CC1NC(=S)N(C2CCCCC2)C1=O (stereo not given)	–	35.5 µM [falling, single point]

SMILES	AC50 [1]	AC50 [2]
CS(=O)(=O)Nc1ccc(C2=NN(C(=O)c3ccco3)C(c3ccc(F)cc3)C2)cc1 (stereo not given)	6.31 µM [falling, partial curve, poor fit]	–
O=C(COC(=O)c1c2c(nc3ccccc13)CCN(Cc1ccccc1)C2)Nc1c(F)cccc1F	12.6 µM [rising, single point]	17.8 µM [rising, single point]
COc1cc(-c2nc3ccc(C)cn3c2Nc2ccc3c(c2)OCCO3)ccc1O	15.8 µM [rising, partial curve]	14.1 µM [rising, single point]
CC1Cc2ccccc2N1Cc1nc2cc(Cl)ccc2c(=O)[nH]1 (stereo not given)	35.5 µM [rising, single point]	–
Cc1ccc(/C(N)=N/OC(=O)c2ccc3c(c2)OCO3)cc1	15.8 µM [falling, single point]	17.8 µM [falling, single point]
COc1ccc([N+](=O)[O-])cc1NC(=S)NC(NC(=O)C(c1ccccc1)c1ccccc1)C(Cl)(Cl)Cl (stereo not given)	12.6 µM [rising, partial curve]	–
COc1ccc(/C=C/C(=O)OCC(=O)NCC2CCCO2)cc1 (stereo not given)	0.224 µM [rising, full curve, poor fit]	–
Cc1ccc(CNC(=O)CSc2nc3c(sc4ccccc43)c(=O)n2CCCOC(C)C)cc1	31.6 µM [rising, single point]	15.8 µM [rising, single point]
Cc1ccc(S(=O)(=O)N2CCCC(C(=O)N3CCCc4ccccc43)C2)cc1 (stereo not given)	10 µM [rising, partial curve]	8.91 µM [rising, partial curve, poor fit]
Cc1ccc(CN2CCC(CNC(=O)c3cnn(-c4ccccc4Cl)c3C3CCN(C(=O)OC(C)(C)C)CC3)CC2)cc1	20 µM [falling, partial curve, poor fit]	17.8 µM [falling, partial curve, poor fit]
Cn1cccc1CC(=O)N/N=C\c1ccccc1	–	2.82 µM [falling, partial curve, poor fit]
O=C(c1ccc(O)cc1)c1ccc(C(=O)c2ccc(O)cc2)cc1	0.0178 µM [falling, full curve, poor fit]	0.0158 µM [falling, full curve, poor fit]
O=[N+]([O-])c1ccc(-c2nnc(-c3ccccc3)c(NCCCO)n2)cc1	11.2 µM [rising, single point]	10 µM [rising, partial curve]
CCn1c(CNC(=O)c2ccco2)nnc1SCC(=O)c1ccccc1	–	0.00447 µM [falling, full curve, poor fit]
O=C(Nc1nccs1)C1CC(=O)N(Cc2ccco2)C1 (stereo not given)	–	31.6 µM [rising, single point]
COc1ccccc1-c1cncnc1Nc1ccc(F)cc1	10 µM [falling, partial curve]	–
O=C(c1ccc(Br)o1)N1CCN(C/C=C/c2ccccc2)CC1	22.4 µM [rising, single point]	–
O=S(=O)(Nc1ccc(-c2cn3ccsc3n2)cc1)c1ccc2c(c1)OCCO2	11.2 µM [rising, partial curve]	3.55 µM [rising, full curve]
Cc1ccc(NS(=O)(=O)c2cc([N+](=O)[O-])ccc2NNC(=S)Nc2cc(C)ccc2C)c(C)c1	31.6 µM [rising, single point]	–
CN(CC(=O)NC(=O)NCc1ccccc1)Cc1ccc(Cl)c(Cl)c1	–	15.8 µM [rising, single point]
COc1ccc(S(=O)(=O)N2CCOC2CNC(=O)C(=O)NCCc2c[nH]c3ccccc23)cc1 (stereo not given)	22.4 µM [rising, partial curve]	14.1 µM [rising, single point]
CCOC(=O)N1CCC(NC(=O)CCCN2C(=O)CSc3ncccc32)CC1	0.708 µM [falling, full curve, poor fit]	–
COc1ccc(NC(=O)c2c(NCc3cccs3)sc3c2CCC(C)C3)c(OC)c1 (stereo not given)	2.82 µM [falling, full curve]	7.08 µM [falling, partial curve, poor fit]
CCO/C=C/C(O)(CNC(=O)c1ccc(C(C)(C)C)cc1)C(F)(F)F (stereo not given)	14.1 µM [rising, single point]	–
COc1cccc(Cn2c(=O)c(CCc3ccccc3)nc3cncnc32)c1	–	22.4 µM [falling, single point]
Cc1ccc2nc(/C(C#N)=C\c3ccc(OC(=O)c4cccs4)cc3)[nH]c2c1	35.5 µM [falling, single point]	35.5 µM [falling, single point]
